Measured values reported in PubChem BioAssay (EPA / NIEHS).
The inconclusive results got no clear call from the source; some entries with a clear call stand among them for comparison. For some assays here: Where the call is inconclusive, the potency comes from a doubtful curve fit. Active and inactive are the calls of the source. The calls were made as follows: active = hit-call score of the fitted dose curve at least 0.9, where 1 is the maximum; inconclusive = response in the unintended direction; inactive = score below 0.9.

Amino acid sequences for entries named in this document (tags omitted). A change or cut given only in a name is not applied to a line headed by its entry.
UniProt P10827: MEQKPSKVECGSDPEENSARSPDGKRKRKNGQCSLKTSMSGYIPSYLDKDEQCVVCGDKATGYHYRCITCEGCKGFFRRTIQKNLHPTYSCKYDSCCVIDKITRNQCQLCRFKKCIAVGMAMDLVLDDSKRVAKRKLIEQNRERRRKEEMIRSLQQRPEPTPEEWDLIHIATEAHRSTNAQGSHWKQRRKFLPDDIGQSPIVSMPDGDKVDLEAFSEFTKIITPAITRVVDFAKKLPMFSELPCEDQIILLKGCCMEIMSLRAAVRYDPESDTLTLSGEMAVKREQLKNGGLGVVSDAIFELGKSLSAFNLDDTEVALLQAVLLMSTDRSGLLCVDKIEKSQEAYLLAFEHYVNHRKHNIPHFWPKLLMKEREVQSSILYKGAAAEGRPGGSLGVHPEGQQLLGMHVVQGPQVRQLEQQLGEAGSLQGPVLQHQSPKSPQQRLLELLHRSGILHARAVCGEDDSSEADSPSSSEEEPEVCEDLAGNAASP
UniProt P10828: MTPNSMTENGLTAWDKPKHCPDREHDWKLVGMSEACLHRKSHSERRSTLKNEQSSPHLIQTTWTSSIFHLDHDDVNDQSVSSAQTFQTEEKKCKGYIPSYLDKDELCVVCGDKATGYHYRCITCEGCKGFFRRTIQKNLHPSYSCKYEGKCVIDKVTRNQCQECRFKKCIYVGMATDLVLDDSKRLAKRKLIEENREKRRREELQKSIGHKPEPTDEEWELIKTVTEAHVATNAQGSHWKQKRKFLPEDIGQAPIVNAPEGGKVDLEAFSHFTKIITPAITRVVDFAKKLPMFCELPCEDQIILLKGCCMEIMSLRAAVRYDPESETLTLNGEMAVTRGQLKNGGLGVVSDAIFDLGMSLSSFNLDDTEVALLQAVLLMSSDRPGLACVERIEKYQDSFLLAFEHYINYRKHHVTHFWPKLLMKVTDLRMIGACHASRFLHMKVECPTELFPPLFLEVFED
UniProt P49662: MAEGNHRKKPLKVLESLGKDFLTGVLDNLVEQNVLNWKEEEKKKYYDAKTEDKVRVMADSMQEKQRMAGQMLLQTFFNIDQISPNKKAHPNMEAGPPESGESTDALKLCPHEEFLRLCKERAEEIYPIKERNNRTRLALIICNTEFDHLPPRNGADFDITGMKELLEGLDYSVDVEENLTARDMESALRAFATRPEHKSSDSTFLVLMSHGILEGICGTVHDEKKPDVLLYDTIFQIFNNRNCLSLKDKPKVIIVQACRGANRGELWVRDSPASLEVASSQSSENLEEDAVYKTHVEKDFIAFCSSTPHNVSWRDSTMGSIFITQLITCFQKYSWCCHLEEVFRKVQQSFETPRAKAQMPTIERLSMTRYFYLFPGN
UniProt Q9Z0U4, whole entry, looked up: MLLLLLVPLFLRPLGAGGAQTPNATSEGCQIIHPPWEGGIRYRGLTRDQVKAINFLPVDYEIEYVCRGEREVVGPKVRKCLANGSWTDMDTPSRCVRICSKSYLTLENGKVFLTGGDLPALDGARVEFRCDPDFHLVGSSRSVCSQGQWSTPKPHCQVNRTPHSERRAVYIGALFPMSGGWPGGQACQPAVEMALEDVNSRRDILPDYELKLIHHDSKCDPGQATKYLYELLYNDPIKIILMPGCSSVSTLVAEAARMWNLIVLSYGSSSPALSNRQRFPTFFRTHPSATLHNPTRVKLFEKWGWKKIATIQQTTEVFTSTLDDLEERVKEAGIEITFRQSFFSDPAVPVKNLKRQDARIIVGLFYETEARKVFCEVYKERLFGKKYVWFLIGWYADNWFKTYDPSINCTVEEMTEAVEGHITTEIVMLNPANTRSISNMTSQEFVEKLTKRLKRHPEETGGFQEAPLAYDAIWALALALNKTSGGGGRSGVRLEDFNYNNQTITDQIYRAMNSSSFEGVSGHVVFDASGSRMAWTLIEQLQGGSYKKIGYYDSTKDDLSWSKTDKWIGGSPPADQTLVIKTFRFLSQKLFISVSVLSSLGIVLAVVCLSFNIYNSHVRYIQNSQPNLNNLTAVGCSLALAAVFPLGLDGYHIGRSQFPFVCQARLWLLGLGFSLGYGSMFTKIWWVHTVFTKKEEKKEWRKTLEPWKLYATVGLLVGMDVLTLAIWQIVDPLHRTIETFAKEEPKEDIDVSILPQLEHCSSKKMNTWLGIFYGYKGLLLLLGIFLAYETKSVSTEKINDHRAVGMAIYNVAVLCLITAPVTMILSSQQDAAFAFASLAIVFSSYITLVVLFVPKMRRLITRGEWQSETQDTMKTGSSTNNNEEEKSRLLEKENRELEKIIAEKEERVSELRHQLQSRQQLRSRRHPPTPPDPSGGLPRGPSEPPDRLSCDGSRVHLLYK
UniProt P37231: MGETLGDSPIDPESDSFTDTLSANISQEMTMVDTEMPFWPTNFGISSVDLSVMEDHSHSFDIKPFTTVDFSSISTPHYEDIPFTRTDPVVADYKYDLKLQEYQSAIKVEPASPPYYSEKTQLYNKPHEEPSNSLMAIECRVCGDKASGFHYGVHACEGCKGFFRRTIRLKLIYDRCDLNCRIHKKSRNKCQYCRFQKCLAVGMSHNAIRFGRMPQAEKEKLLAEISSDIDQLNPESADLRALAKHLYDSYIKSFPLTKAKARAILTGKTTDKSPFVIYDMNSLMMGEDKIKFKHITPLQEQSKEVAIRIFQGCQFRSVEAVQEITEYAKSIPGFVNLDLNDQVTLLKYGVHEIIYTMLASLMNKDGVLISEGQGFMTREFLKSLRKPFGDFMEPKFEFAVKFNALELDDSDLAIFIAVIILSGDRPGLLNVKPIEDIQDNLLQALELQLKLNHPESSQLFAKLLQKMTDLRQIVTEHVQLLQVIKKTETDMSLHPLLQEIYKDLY
UniProt P03372, whole entry, looked up: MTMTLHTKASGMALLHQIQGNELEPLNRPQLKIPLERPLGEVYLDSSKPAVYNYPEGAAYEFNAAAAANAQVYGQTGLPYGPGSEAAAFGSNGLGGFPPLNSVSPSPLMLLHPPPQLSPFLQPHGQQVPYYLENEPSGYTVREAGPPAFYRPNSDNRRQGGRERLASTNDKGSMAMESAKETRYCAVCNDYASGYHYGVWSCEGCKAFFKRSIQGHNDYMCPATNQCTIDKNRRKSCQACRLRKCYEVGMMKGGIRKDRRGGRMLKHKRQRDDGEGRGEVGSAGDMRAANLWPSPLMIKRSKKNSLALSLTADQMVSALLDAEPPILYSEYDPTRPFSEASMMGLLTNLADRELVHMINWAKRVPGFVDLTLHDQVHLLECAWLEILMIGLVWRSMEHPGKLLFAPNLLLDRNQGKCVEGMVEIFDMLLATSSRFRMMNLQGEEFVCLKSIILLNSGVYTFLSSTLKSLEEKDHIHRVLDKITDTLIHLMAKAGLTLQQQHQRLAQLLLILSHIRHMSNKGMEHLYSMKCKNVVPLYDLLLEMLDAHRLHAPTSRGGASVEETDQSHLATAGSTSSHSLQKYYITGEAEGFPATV
UniProt P10275: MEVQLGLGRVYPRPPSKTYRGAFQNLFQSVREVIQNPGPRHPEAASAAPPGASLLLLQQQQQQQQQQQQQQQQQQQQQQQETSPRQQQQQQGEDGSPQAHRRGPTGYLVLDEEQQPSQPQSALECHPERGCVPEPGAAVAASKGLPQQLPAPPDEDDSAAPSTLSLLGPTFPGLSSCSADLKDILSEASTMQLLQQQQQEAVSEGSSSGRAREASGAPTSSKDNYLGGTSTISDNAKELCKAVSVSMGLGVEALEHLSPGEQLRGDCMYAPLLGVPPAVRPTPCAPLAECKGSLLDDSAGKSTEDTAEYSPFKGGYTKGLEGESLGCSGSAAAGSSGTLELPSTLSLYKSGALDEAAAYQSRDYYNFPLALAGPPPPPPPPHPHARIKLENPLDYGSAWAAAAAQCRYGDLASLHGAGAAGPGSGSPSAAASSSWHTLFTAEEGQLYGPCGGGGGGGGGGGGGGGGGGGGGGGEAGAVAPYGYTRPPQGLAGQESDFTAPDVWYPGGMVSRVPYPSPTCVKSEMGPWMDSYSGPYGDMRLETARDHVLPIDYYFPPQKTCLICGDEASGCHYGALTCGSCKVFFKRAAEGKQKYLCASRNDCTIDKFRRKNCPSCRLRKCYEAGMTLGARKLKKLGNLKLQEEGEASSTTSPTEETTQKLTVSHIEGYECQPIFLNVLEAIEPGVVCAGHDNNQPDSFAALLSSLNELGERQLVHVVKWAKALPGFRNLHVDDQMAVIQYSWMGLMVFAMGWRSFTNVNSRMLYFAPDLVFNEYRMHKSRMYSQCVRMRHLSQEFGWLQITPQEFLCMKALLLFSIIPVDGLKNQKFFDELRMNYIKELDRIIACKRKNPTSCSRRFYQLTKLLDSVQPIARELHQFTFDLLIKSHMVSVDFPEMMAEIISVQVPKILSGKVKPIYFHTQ
UniProt Q01959, whole entry, looked up: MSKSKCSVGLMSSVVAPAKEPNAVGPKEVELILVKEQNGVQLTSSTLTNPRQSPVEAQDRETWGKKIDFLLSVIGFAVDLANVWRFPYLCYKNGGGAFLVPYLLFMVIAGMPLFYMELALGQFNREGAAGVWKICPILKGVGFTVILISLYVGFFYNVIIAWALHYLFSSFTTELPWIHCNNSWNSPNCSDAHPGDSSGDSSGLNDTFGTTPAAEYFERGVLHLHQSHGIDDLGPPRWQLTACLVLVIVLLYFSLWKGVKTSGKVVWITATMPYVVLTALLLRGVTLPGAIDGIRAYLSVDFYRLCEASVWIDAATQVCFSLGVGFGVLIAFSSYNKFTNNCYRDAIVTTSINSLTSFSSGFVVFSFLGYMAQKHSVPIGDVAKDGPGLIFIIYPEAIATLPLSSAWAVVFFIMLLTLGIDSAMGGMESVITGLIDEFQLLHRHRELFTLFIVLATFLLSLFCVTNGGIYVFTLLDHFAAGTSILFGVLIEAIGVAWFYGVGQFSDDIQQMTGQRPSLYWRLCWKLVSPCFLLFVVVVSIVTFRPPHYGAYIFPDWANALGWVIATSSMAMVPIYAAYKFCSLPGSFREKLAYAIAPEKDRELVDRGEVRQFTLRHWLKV
UniProt P10633: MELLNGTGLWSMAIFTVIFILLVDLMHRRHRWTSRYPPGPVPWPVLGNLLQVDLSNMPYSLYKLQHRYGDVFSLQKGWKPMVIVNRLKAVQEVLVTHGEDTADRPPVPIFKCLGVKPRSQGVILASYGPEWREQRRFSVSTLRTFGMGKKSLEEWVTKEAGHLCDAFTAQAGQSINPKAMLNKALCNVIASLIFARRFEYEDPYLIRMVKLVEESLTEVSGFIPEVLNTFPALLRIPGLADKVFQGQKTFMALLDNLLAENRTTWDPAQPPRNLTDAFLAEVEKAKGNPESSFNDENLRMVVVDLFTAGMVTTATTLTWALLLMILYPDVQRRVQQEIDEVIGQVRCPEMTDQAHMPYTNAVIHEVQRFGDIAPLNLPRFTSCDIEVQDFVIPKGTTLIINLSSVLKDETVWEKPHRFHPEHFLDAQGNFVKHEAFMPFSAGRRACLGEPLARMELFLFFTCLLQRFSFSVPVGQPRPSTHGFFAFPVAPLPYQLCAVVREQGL

How the values were obtained:
[1] = IUF_NPC2-5_cytotoxicity_72hr: Cytotoxicity Assessment at 72 hours in the Leibniz Research Institute for Environmental Medicine (IUF) Neural Progenitor Cell Migration and Differentiation Assay for Cytotoxicity (NPC2-5) (AID 2284306);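 also: LDH release into supernatant measured by resorufin fluorescence marking membrane damage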
Procedure, shortened: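 Membrane-integrity cytotoxicity at 72 h, read as LDH-driven resorufin fluorescence in supernatant. hNPC spheres from fetal cortex differentiate on coated plates in N2 medium, 37C, 5% CO2; seven serial compound concentrations plus solvent control (DMSO ≤0.1%).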

[2] = VALA_TUBIPS_Antagonist_CellCount: Viability Assessment in the VALA Sciences human iPS-derived Endothelial Tubule Formation (TUBIPS) Antagonism Assay (AID 2284335)
[3] = VALA_MIGHUV1_ScratchOnly_WoundArea: VALA Sciences human Umbilical Vein Endothelial Cell Migration (MIGHUV) Assay, Area of Scratch Wound Inhibited Recovery (AID 2284336)
Procedure, shortened: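 Wound area remaining after 24 h recovery imaged by Hoechst nuclear fluorescence in scratched HUVEC cultures, chemicals added within 30 min of scratching across a 6-point series. Gain of signal fitted against 0.1% DMSO; cytochalasin D positive control.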

[4] = VALA_TUBHUV_Agonist_TubuleLength: VALA Sciences human Umbilical Vein Endothelial Tubule Formation (TUBHUV) Agonism Assay (AID 2284337)
Procedure, shortened: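 Tubule length quantified by CD31 immunofluorescence imaging after fixation. HUVEC-HDF co-cultures (1:3) pre-grown 3 days with 10 ng/ml VEGF, then dosed 3 days in VEGF medium; 0.1 % DMSO vehicle baseline.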

[5] = biological target: Thyroid hormone receptor alpha (Rattus norvegicus) + Thyroid hormone receptor beta (Rattus norvegicus) (UniProt P18113+P63059); test: TOX21_TR_LUC_GH3_Antagonist_Followup: Tox21 GH3 Thyroid Hormone Receptor Antagonism Luciferase Follow-Up Assay (AID 2283942)
Procedure, shortened: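 Loss of T3-driven (1.0 nM final) reporter activity in GH3 cells was read by ONE-Glo luminescence after 24 h incubation at 37C; 15-point compound series spanned 92 uM to 5nM final, 1,500 cells/well.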

[6] = biological target: THRA (gene 7067) (UniProt P10827); test: TOX21_TRA_COA_Antagonist_Followup_ratio: Tox21 Thyroid Hormone Receptor alpha Antagonism through Coactivator Recruitment Follow-Up Assay, Ratio (AID 2283953)
Procedure, shortened: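 We measured antagonism of T3-type coactivator recruitment using a TR-FRET ratio (emission 520 and 495 nm) between a Tb-labelled anti-GST antibody on TRα LBD (2.5 nM) and SRC-2 peptide (200 nM). Activity was scaled between DMSO and T3 wells.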

[7] = TOX21_TRB_BLA_Antagonist_Followup_viability: Viability Assessment in the Tox21 Thyroid Hormone Receptor beta Antagonism Beta-lactamase (BLA) Follow-Up Assay (AID 2283961)
Procedure, shortened: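 HEK293T cells stably expressing GAL4-DBD/human TRβ-LBD with UAS-bla reporter, 3,000 cells/well in phenol red-free DMEM, 2% charcoal-stripped FBS. Compounds at 11 concentrations in triplicate, 18 h at 37C/5% CO2; viability by CellTiter-Glo luminescence after 30 min at room temperature.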

[8] = biological target: THRB (gene 7068) (UniProt P10828); test: TOX21_TRB_COA_Antagonist_Followup_ratio: Tox21 Thyroid Hormone Receptor beta Antagonism through Coactivator Recruitment Follow-Up Assay, Ratio (AID 2283967)
Procedure, shortened: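 Coactivator recruitment to the GST-tagged TRb ligand-binding domain (5.0 nM) was read as the 520/495 nm TR-FRET ratio, using 200 nM fluorescein SRC-2 peptide and 2 nM terbium anti-GST. Scaled between DMSO and T3 wells; loss of signal fitted.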

[9] = CPHEA_Stoker_NIS_Cytotoxicity: Cytotoxicity Assessment for CPHEA's Radioactive Iodide Uptake (RAIU) Assay for Sodium/Iodide Symporter (NIS) Inhibition, Stoker and Laws Labs (AID 2283897)
Procedure, shortened: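 ATP luminescence (Cell Titer Glo) measured viability, with loss of signal normalized to DMSO controls. Cells: hNIS-HEK293T-EPA, seeded 40 hours prior. Dosing: 0.001–100uM, 2 hours, room temperature, uptake buffer pH 7.4.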

[10] = biological target: human Caspase 4 (CASP4), CASP4 (gene 837) (UniProt P49662); test: NVS_ENZ_hCASP4: NovaScreen (NVS) Enzymatic Assay for human Caspase 4 (CASP4) (AID 2283143)
Procedure, shortened: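 Compounds were first tested in duplicate at 25 uM, and hits were titrated singly to a 50 uM maximum. Recombinant protease from E. coli was read by fluorescence 2 h post-dose, and activity loss was fitted against the DMSO baseline.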

[11] = biological target: rat Gamma-Aminobutyric Acid Type B Receptor (GABBR), Gabbr1 (gene 81657) (UniProt Q9Z0U4); test: NVS_GPCR_rGABBR: NovaScreen (NVS) G Protein-Coupled Receptor Assay for rat Gamma-Aminobutyric Acid Type B Receptor (GABBR) (AID 2283301)
Procedure, shortened: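 Rat cortical membrane preparation, competitive radioligand binding for 1 h with filtration and scintillation readout. Actives from duplicate single-point 25 uM screening proceeded to concentration series with 50 uM top concentration.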

[12] = biological target: Peroxisome proliferator-activated receptor gamma (Homo sapiens) (UniProt P37231); test: ATG_hPPARg_XSP2: Attagene TRANS-FACTORIAL Multi-Species (XSP2) HepG2 Assay for human Peroxisome Proliferator-activated Receptor gamma (PPARg) (AID 2283829);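 also: actives raise reporter mRNA above DMSO so AC50 reflects PPARg activation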
Procedure, shortened: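 HepG2 cells transiently transfected with multiplexed GAL4-UAS reporter units for chimeric NR-Gal4 receptors, dosed 24 h. Reporter mRNA quantified by RT-PCR, 6-FAM labeling, HpaI digestion and capillary electrophoresis; gain-of-signal fitted against DMSO baseline.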

[13] = biological target: Collagenase 3 (Homo sapiens) (UniProt P45452); test: NVS_ENZ_hMMP13: NovaScreen (NVS) Enzymatic Assay for human Matrix Metalloproteinase-13 (MMP13) (AID 2283182)
Procedure, shortened: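 Recombinant MMP13 cleaving fluorescent substrate, cell-free, measured 1 h after dosing. Primary duplicate screen at 25 uM; actives tested in concentration-response up to 50 uM; loss of signal relative to DMSO.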

[14] = tested on: guinea pig Histamine Receptor (H2), gene 100729734; test: NVS_GPCR_gH2: NovaScreen (NVS) G Protein-Coupled Receptor Assay for guinea pig Histamine Receptor (H2) (AID 2283342)
Procedure, shortened: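 Guinea pig striatal membrane preparation with specific radioligand; bound counts measured by filtration and scintillation 1 h post-dosing, DMSO as baseline. Chemicals passing a 25 uM duplicate screen were titrated to a 50 uM maximum.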

[15] = biological target: Estrogen receptor (Homo sapiens) (UniProt P03372); test: ATG_hERa_XSP1: Attagene TRANS-FACTORIAL Multi-Species (XSP1) HepG2 Assay for human Estrogen Receptor (ESR1) (AID 2283780)
Procedure, shortened: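 Reporter transcripts from multiplexed GAL4-UAS units driven by NR-Gal4 chimeras in transiently transfected HepG2 were measured by RT-PCR with capillary electrophoresis 24 h post-dose, with 3 nM 6-alpha-fluorotestosterone present; gain-of-signal relative to DMSO.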

[16] = biological target: human Androgen Receptor (AR), AR (gene 367) (UniProt P10275); test: ATG_hAR_XSP1: Attagene TRANS-FACTORIAL Multi-Species (XSP1) HepG2 Assay for human Androgen Receptor (AR) (AID 2283785)
Procedure: ATG_XSP1_multi-species_TRANS is a cell-based, multiplexed assay created by modifying the existing Attagene TRANS-FACTORIAL system to include a panel of nuclear receptors from some or all the following species: human (Homo sapiens), mouse (Mus musculus), frog (Xenopus laevis), zebrafish (Danio rerio), chicken (Gallus gallus), and turtle (Chrysemys picta). The ECOTOX-FACTORIAL format uses HepG2, a human liver cell line, with measurements taken at 24 hours after chemical dosing in a 24-well plate. Xsp1 included 3 nM 6-alpha-fluorotestosterone to partially stimulate the androgen receptor.ATG_hAR_XSP1 is one of 29 assay components measured or calculated from the ATG_XSP1_multi-species_TRANS assay. It is designed to make measurements of mRNA induction, a form of inducible reporter, as detected with fluorescence intensity signals by Reverse transcription polymerase chain reaction (RT-PCR) and Capillary electrophoresis technology.The assay endpoint ATG_hAR_XSP1 was analyzed in the positive analysis fitting direction relative to DMSO as the negative control and baseline of activity. […] Furthermore, this assay endpoint can be referred to as a primary readout, because this assay has produced multiple assay endpoints where this one serves a reporter gene function. […]

[17] = biological target: human Dopamine Transporter (DAT), SLC6A3 (gene 6531) (UniProt Q01959); test: NVS_TR_hDAT: NovaScreen (NVS) Transporter Assay for human Dopamine Transporter (DAT) (AID 2283374);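 also: activity means loss of bound radioligand signal relative to DMSO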
Procedure, shortened: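 Duplicate single-point screening at 25 uM preceded concentration-series follow-up of actives. Binding was measured by competitive displacement of a radioligand from DAT protein, filter-counted by scintillation 1 h after dosing. Decrease relative to DMSO taken as activity.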

[18] = biological target: Nuclear receptor subfamily 1 group I member 2 (Mus musculus) (UniProt O54915); test: ATG_mPXR_XSP1: Attagene TRANS-FACTORIAL Multi-Species (XSP1) HepG2 Assay for mouse Pregnane X Receptor (PXR) (AID 2283803)
Procedure, shortened: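 Transiently transfected HepG2 cells expressing a receptor-Gal4 chimera drive a GAL4-UAS reporter; 3 nM 6-alpha-fluorotestosterone included. Reporter mRNA read 24 h post-dose by RT-PCR and capillary electrophoresis; gain of signal relative to DMSO.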

[19] = biological target: rat CYP2D1, Cyp2d1 (gene 266684) (UniProt P10633); test: NVS_ADME_rCYP2D1: NovaScreen (NVS) CYP450-related Enzyme Activity (ADME) Assay for rat CYP2D1 (AID 2283122)
Procedure, shortened: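 Rat CYP2D1 enzyme activity measured by fluorescence intensity in a cell-free format, 0.75 h post-dosing, acetonitrile as negative control. Screening at 10 uM in duplicate, with actives followed in concentration series up to 20 uM.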

[20] = tested on: rat CYP3A1, gene 25642; test: NVS_ADME_rCYP3A1: NovaScreen (NVS) CYP450-related Enzyme Activity (ADME) Assay for rat CYP3A1 (AID 2283126)
Procedure, shortened: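 Compounds went first at 10 uM duplicate, then to series with 20 uM maximum. Fluorescence from substrate turnover by the recombinant enzyme was measured 0.5 h post-dosing, inhibition scored against acetonitrile vehicle.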

For O=S(=O)(O)C(F)(F)C(F)(F)C(F)(F)C(F)(F)C(F)(F)C(F)(F)C(F)(F)C(F)(F)F, the AC50 [1] was active: 79.3 µM, the outcome [2] was “inactive” and the outcome [3] was “inactive”. The AC50 [4] was inconclusive: 50 µM.

For C=C(C)[C@H]1Cc2c(ccc3c2O[C@@H]2COc4cc(OC)c(OC)cc4[C@@H]2C3=O)O1, the AC50 [5] was active: 5.29 µM, the AC50 [6] was inconclusive: 38.3 µM and the AC50 [7] was active: 6.16 µM. For the same compound, the outcome [8] was “inactive”.

For C=CCC1=C(C)[C@@H](OC(=O)[C@@H]2[C@@H](C=C(C)C)C2(C)C)CC1=O, the outcome [9] was “inactive”.

In the case of c1ccc(NNc2ccccc2)cc1, the outcome [10] is reported as “inactive”.

With CCCCC(CC)COC(=O)c1ccc(C(=O)OCC(CC)CCCC)c(C(=O)OCC(CC)CCCC)c1 (stereo not given) the AC50 [11] was inconclusive: 25 µM and the AC50 [12] was inconclusive: 26.2 µM.

With COC(=O)c1ccccc1S(=O)(=O)NC(=O)Nc1nc(C)nc(OC)n1 the outcome [13] was “inactive”.

With CCCC1COC(Cn2cncn2)(c2ccc(Cl)cc2Cl)O1 (stereo not given) the outcome [14] was “inactive”, the outcome [15] was “inactive” and the AC50 [16] was inconclusive: 67 µM.

For CSC(=O)c1c(C(F)F)nc(C(F)(F)F)c(C(=O)SC)c1CC(C)C, the outcome [17] was “inactive” and the AC50 [18] was active: 0.139 µM.

With CCOC1Oc2ccc(OS(C)(=O)=O)cc2C1(C)C (stereo not given) the outcome [19] was “inactive”.

With CC(C1CC1)C(O)(Cn1cncn1)c1ccc(Cl)cc1 (stereo not given) the AC50 [20] was active: 0.384 µM.
